Results deposited as PubChem BioAssay AID1224826 (NIAID, 2016).
Shown is an unselected part of about 17,000 reagents. In the full data, about 1,110 (6.6%) got an active call. 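Active means lowered or raised reporter signal; replicate intensities are raw and not normalised per plate.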 Not all columns of the deposit are shown.

Test: 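Regulators of Tlr4 signalling leading to Tnf-alpha expression in macrophages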 (primary screen)
Cells: RAW264.7 G9 macrophages from mouse bearing reporters for p65 (GFP) and the Tnf promoter (mCherry)
Reagents: siRNA pool against mouse genes, 100 nM
Timing: 16 h of LPS stimulation, after 2 days of siRNA transfection
Conditions: bacterial lipopolysaccharide (Salmonella minnesota R595), 10 ng/ml
Measured: 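Imaged Tnf reporter mCherry in nuclei, minus background, normalised per plate to the median and expressed as robust z-scores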
Direction: Tnf reporter robust z-score: higher = stronger Tnf promoter reporter signal after LPS
Hit rule: 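Called active when robust z-score is at most -1.3, matching the median of the Tlr4 knock-down control, or over 3; control wells and wells with under 50 cells never active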
Meaning of the calls: active = Tnf reporter clearly lowered or raised; inactive = no clear change in Tnf reporter

With knock-down of Slc4a2 (GeneID 20535) [SID315469309], the screen gave fewer than 50 cells in well fewer than 50 cells per well; well left out of calls; inactive.
Emc3 (GeneID 66087) [SID315472205] scored fewer than 50 cells in well fewer than 50 cells per well; well left out of calls; inactive.
Arhgef1 (GeneID 16801) [SID315467734] showed Tnf reporter robust z-score -1.4; fewer than 50 cells in well enough cells in well; active.
Against Tbl2 (GeneID 27368) [SID315470581] the deposit lists fewer than 50 cells in well fewer than 50 cells per well; well left out of calls; inactive.
Nfx1 (GeneID 74164) [SID315474881] showed Tnf reporter robust z-score 0.13; fewer than 50 cells in well enough cells in well; inactive.
Slc5a7 (GeneID 63993) [SID315472052] showed Tnf reporter robust z-score -1.59; fewer than 50 cells in well enough cells in well; active.
Oxr1 (GeneID 170719) [SID315477196] scored Tnf reporter robust z-score -0.2; fewer than 50 cells in well enough cells in well; inactive.
For D830014E11Rik (GeneID 320751) [SID315481389], the entry reads Tnf reporter robust z-score 1.37; fewer than 50 cells in well enough cells in well; inactive.
E2f3 (GeneID 13557) [SID315466414] showed Tnf reporter robust z-score 1.57; fewer than 50 cells in well enough cells in well; inactive.
After knock-down of Mtfr1 (GeneID 67472) [SID315473051], the screen gave Tnf reporter robust z-score 0.88; fewer than 50 cells in well enough cells in well; inactive.
Depletion of Pde6c (GeneID 110855) [SID315476941] gave: Tnf reporter robust z-score -0.05; fewer than 50 cells in well enough cells in well; inactive.
With knock-down of A430085C19 (retired record) (GeneID 328986) [SID315481504] the results were fewer than 50 cells in well fewer than 50 cells per well; well left out of calls; inactive.
For Or1j13 (GeneID 258952) [SID315480571], the entry reads Tnf reporter robust z-score 0.21; fewer than 50 cells in well enough cells in well; inactive.
Silencing of Gkap1 (GeneID 56278) [SID315471428] came out at: Tnf reporter robust z-score -0.28; fewer than 50 cells in well enough cells in well; inactive.
For Gja5 (GeneID 14613) [SID315466907], the values are Tnf reporter robust z-score -1.11; fewer than 50 cells in well enough cells in well; inactive.
Silencing of Gstt3 (GeneID 103140) [SID315476359] resulted in: Tnf reporter robust z-score 1.57; fewer than 50 cells in well enough cells in well; inactive.
For Or52a24 (GeneID 259159) [SID315480719], the entry reads Tnf reporter robust z-score -1.1; fewer than 50 cells in well enough cells in well; inactive.
For Ctdnep1 (GeneID 67181) [SID315472886], the values are fewer than 50 cells in well fewer than 50 cells per well; well left out of calls; inactive.
Oas2 (GeneID 246728) [SID315479888] showed Tnf reporter robust z-score -0.26; fewer than 50 cells in well enough cells in well; inactive.
Knock-down of Ankrd1 (GeneID 107765) [SID315476639] came out at: Tnf reporter robust z-score 0.2; fewer than 50 cells in well enough cells in well; inactive.
For Gpr75 (GeneID 237716) [SID315479360], the entry reads Tnf reporter robust z-score -0.37; fewer than 50 cells in well enough cells in well; inactive.

Targets above whose target name starts with G or g (4):
Gkap1 (GeneID 56278) [SID315471428] → Tnf reporter robust z-score = -0.28; fewer than 50 cells in well = enough cells in well; Call = inactive
Gja5 (GeneID 14613) [SID315466907] → Tnf reporter robust z-score = -1.11; fewer than 50 cells in well = enough cells in well; Call = inactive
Gstt3 (GeneID 103140) [SID315476359] → Tnf reporter robust z-score = 1.57; fewer than 50 cells in well = enough cells in well; Call = inactive
Gpr75 (GeneID 237716) [SID315479360] → Tnf reporter robust z-score = -0.37; fewer than 50 cells in well = enough cells in well; Call = inactive
